Reference: patent US20150322474A1 (UNIVERSITY OF THE UNIVERSITY OF ABERDEEN, published 2015)
No constants are given. Whether binding was seen depends on the method and setting. In cells and extracts the contact can be indirect. Some binding calls cover weakened binding; strength is not graded here.

Target: T1, … peptide substrate
T1 sequence (peptide): VGAGIGFPAYDG
Experiment: LC-MS of the macrocyclization reaction; covalent acyl-enzyme intermediate

- binding: binds
B1: PatGmac wild-type (macrocyclase domain of PatG, residues 492-851) (enzyme)
chain: GEDEIESAGVSASEVESSATKQKVALHPHDLDERIPGLADLHNQTLGDPQITIVIIDGDPDYTLSCFEGAEVSKVFPYWHEPAEPITPEDYAAFQSIRDQGLKGKEKEEALEAVIPDTKDRIVLNDHACHVTSTIVGQEHSPVFGIAPNCRVINMPQDAVIRGNYDDVMSPLNLARAIDLALELGANIIHCAFCRPTQTSEGEEILVQAIKKCQDNNVLIVSPTGNNSNESWCLPAVLPGTLAVGAAKVDGTPCHFSNWGGNNTKEGILAPGEEILGAQPCTEEPVRLTGTSMAAPVMTGISALLMSLQVQQGKPVDAEAVRTALLKTAIPCDPEVVEEPERCLRGFVNIPGAMKVLFGQ
